Source: patent US11492327B2, “Aminooxylipids for the construction of self-assembling liposomal systems enabling their subsequent modification by biologically functional molecules” (VYSOKA SKOLA CHEMICKO-TECHNOLOGICKA V PRAZE, priority 2016, dated 2022)

experiment: HA binding onto liposomes presenting the aminooxy group vs. the amino group (gel chromatography, fluorimetry); conditions: liposome fraction (2 ml); 1 mg total lipid to 0.1 mg FITC-HA; lipid incorporated in liposomes
Experimental: Methods: Liposomes presenting the aminooxy group were prepared by the procedure described in Example 15, containing 1% aminooxylipidid of general formula I (according to Example 14) at a starting concentration of 10 mg/ml PBS. The amino group-presenting liposomes were prepared by the same technique with the amino group-containing lipid DOPE. These liposomes at a starting concentration of 10 mg/ml PBS were mixed with fluorescently labelled HA (Sigma-Aldrich) at a concentration of 1 mg/ml PBS in a ratio of 1 mg total lipid to 0.1 mg HA. Incubation takes place for at least 30 minutes at room temperature (see Example 19). Both samples were incubated in 10 mM citric acid. Unbound HA was removed on a Superose 6 column (200 μl spraying buffer, flow rate of the first milliliter was 0.1 ml/min, then 0.3 ml/min, collection of 1 ml fractions). Fluorescence was measured using a Perkin Elmer fluorimeter at appropriate wavelengths (excitation for FITC-HA was 490 nm, emission 505 nm).

Structure (SMILES)	HA bound, % of the original HA amount
CCCCCCCC/C=C\CCCCCCCC(=O)OC[C@H](COP(=O)(O)OCCN)OC(=O)CCCCCCC/C=C\CCCCCCCC [DOPE, 1,2-dioleoyl-sn-glycero-3-phosphoethanolamine, reference compound]	27%
CCCCCCCCCCCCCCC(CCCCCCCCCCCCCC)C(=O)NCCNC(=O)CON.O=C(O)C(F)(F)F [Example 12, N^1-(2-tetradecylhexadecanoyl)-N^2-amoniumoxyacetyl-1,2-diaminoethane-trifluoroacetate]	almost identical
CCCCCCCCCCCCCCC(CCCCCCCCCCCCCC)C(=O)NCCCNC(=O)CON.O=C(O)C(F)(F)F [Example 13, N^1-(2-tetradecylhexadecanoyl)-N^3-amoniumoxyacetyl-1,3-diaminopropane-trifluoracetate]	almost identical
CCCCCCCCCCCCCCC(CCCCCCCCCCCCCC)C(=O)NCOC(CCOCC)NC(=O)CON.O=C(O)C(F)(F)F (stereo not shown) [Example 14, N^1-(2-tetradecylhexadecanoyl)-N^3-amoniumoxyacetyl-1,3-diamino-2,6-dioxaoctane-trifluoracetate]	45%
